Among the data in article PMC8096244 are binding values, retold here.

Chains of the proteins cited; added tags and fusions are not shown.
UniProt P51979: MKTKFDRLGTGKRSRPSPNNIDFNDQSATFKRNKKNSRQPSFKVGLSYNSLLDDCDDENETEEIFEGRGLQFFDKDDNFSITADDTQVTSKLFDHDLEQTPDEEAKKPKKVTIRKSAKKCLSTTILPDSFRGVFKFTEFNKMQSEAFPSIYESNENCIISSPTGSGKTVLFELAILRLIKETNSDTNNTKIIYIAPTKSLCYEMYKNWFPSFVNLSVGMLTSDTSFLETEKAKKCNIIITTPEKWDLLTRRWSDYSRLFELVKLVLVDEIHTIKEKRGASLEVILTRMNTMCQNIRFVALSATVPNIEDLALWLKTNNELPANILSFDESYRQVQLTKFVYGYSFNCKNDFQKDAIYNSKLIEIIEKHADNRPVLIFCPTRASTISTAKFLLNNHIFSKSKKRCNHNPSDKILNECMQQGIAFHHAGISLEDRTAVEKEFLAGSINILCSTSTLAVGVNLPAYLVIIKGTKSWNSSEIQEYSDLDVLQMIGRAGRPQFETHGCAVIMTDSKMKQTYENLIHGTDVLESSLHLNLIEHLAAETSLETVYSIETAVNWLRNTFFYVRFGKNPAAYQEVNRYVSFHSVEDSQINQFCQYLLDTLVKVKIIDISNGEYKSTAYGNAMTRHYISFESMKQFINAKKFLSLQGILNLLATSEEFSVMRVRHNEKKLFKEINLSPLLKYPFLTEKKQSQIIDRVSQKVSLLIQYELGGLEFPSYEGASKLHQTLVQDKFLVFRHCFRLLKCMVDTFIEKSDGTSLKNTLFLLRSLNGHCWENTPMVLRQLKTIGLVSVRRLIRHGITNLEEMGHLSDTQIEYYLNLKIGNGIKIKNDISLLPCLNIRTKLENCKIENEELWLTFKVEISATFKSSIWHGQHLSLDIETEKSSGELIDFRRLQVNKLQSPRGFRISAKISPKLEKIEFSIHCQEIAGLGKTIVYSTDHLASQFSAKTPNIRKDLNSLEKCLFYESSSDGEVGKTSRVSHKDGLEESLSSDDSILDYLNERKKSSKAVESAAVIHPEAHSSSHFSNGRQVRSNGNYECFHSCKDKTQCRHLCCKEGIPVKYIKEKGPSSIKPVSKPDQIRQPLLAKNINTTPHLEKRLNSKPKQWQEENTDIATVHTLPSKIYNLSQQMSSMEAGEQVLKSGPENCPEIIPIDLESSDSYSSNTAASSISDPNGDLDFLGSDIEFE

This assay deals with Mer3-TAP (S. cerevisiae) (UniProt P51979). The assay can be described thus: affinity purification with mass spectrometry; Mer3-TAP captured on IgG Sepharose from lysate of cells at 5 h of synchronized meiosis (TAP lysis buffer, 300 mM NaCl, 0.5% NP-40, 4°C); on-bead digestion, label-free quantitative MS, four replicates, against an untagged Mer3 strain.

No constants are given. Whether binding was seen depends on the method and setting. In cells and extracts the contact can be indirect. These calls come from enrichment with a bait or labelling near it, and not all partners need be listed.

B1: Rfc1 (protein, UniProt P38630 1-861)
chain: MVNISDFFGKNKKSVRSSTSRPTRQVGSSKPEVIDLDTESDQESTNKTPKKMPVSNVIDVSETPEGEKKLPLPAKRKASSPTVKPASSKKTKPSSKSSDSASNITAQDVLDKIPSLDLSNVHVKENAKFDFKSANSNADPDEIVSEIGSFPEGKPNCLLGLTIVFTGVLPTLERGASEALAKRYGARVTKSISSKTSVVVLGDEAGPKKLEKIKQLKIKAIDEEGFKQLIAGMPAEGGDGEAAEKARRKLEEQHNIATKEAELLVKKEEERSKKLAATRVSGGHLERDNVVREEDKLWTVKYAPTNLQQVCGNKGSVMKLKNWLANWENSKKNSFKHAGKDGSGVFRAAMLYGPPGIGKTTAAHLVAQELGYDILEQNASDVRSKTLLNAGVKNALDNMSVVGYFKHNEEAQNLNGKHFVIIMDEVDGMSGGDRGGVGQLAQFCRKTSTPLILICNERNLPKMRPFDRVCLDIQFRRPDANSIKSRLMTIAIREKFKLDPNVIDRLIQTTRGDIRQVINLLSTISTTTKTINHENINEISKAWEKNIALKPFDIAHKMLDGQIYSDIGSRNFTLNDKIALYFDDFDFTPLMIQENYLSTRPSVLKPGQSHLEAVAEAANCISLGDIVEKKIRSSEQLWSLLPLHAVLSSVYPASKVAGHMAGRINFTAWLGQNSKSAKYYRLLQEIHYHTRLGTSTDKIGLRLDYLPTFRKRLLDPFLKQGADAISSVIEVMDDYYLTKEDWDSIMEFFVGPDVTTAIIKKIPATVKSGFTRKYNSMTHPVAIYRTGSTIGGGGVGTSTSTPDFEDVVDADDNPVPADDEETQDSSTDLKKDKLIKQKAKPTKRKTATSKPGGSKKRKTKA
As for B1, the binding result is “binds”.
